Results reported in paper PMC7862700.
This is a selection; strong and weak results do not stand in their true shares. At the low end of the ranking the order means little.

Each sequence was assayed against SPI1 (UniProt P17947) (assay: DAPPL (digital affinity profiling via proximity ligation, sequencing)). Conditions: 10 mM Tris-HCl pH 7.5, 50 mM NaCl, 1 mM DTT, 4% glycerol, room temperature, 30 min; GST-TFs on glutathione beads, 16-mer random dsDNA library, 0.1% …; high values mean tight binding; double strand, one strand shown; scale: fold enrichment (6-mer frequency, TF over GST control).
With CGTGAA the binding signal was 0.456. CGGGAG was tested, and the binding signal was 0.189. In the case of CGTGGA, the binding signal is reported as 0.503. Work on CTGTGA yielded a binding signal of 0.475. GCGCTG gave a binding signal of 0.747. Sequence AAGGAC has a binding signal of 0.777. ATGAGA was tested, and the binding signal was 0.825. For GGTGTG, the binding signal was 0.719. AGGTGC showed a binding signal of 0.588. CGGCCG gave a binding signal of 0.793. GGACAA gave a binding signal of 0.741. Sequence CCATGA has a binding signal of 0.857. In the case of CGGTTG, the binding signal is reported as 0.772. Work on ACGGTC yielded a binding signal of 0.721. Sequence GGAGAC has a binding signal of 0.153. In the case of AGCTGG, the binding signal is reported as 0.888. With CAGGTG the binding signal was 0.519. AGACTG showed a binding signal of 0.493. GTCGGA showed a binding signal of 0.176. In the case of TGTCGG, the binding signal is reported as 0.373. Work on AGGAGT yielded a binding signal of 0.34. Work on AGGCCA yielded a binding signal of 0.676. In the case of CGGAGC, the binding signal is reported as 0.386. AGCCAT was tested, and the binding signal was 0.86. Work on GTGTGG yielded a binding signal of 0.766. Work on GCACGG yielded a binding signal of 0.791. AGTTCA was tested, and the binding signal was 1.01. Sequence GGGATC has a binding signal of 0.623. GGTAGA gave a binding signal of 0.615. Sequence TAGGTG has a binding signal of 0.83. GGTGGG gave a binding signal of 0.624. With TCGGTT the binding signal was 0.889. GGTACC showed a binding signal of 0.848. Work on TGAGAT yielded a binding signal of 0.65. GTGCGT was tested, and the binding signal was 0.628. In the case of AGACGG, the binding signal is reported as 0.332. GCAGTG was tested, and the binding signal was 0.506. Work on CAGAGA yielded a binding signal of 0.612. CAGGAC gave a binding signal of 0.692.
